# Where a name gives a salt, the structure may show the parent alone. The list shows a part of the results. Plates or batches differ in their baseline, so values are only roughly comparable.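 HCT116-GFP is a human colorectal cancer cell line that carries a KRAS mutation, is microsatellite-unstable and always makes green fluorescent protein; the immune cells came from healthy donors. Live-cell imaging of the green signal stood in for cancer cell survival, and activated immune cells alone cut survival to about half.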
# Tested on: HCT116-GFP
# Test: HCT116-GFP viability (GFP intensity) relative to untreated HCT116-GFP monoculture control, co-culture with activated PBMCs; higher = less cancer cell killing
# Conditions: culture: co-culture with anti-CD3/IL2 activated PBMCs 1:1; 10 µM; 72 h
row,SMILES,HCT116-GFP viability [%]
1,CCCCc1ccc2[nH]c(NC(=O)OC)nc2c1 [Parbendazole],2.35
2,C/C(=C\C(=O)OCCCCCCCCC(=O)O)C[C@@H]1OC[C@H](C[C@@H]2O[C@H]2[C@@H](C)[C@H](C)O)[C@@H](O)[C@H]1O [Mupirocin],34
3,CCc1cccc(CC)c1NC(=O)CN(CC(=O)O)CC(=O)O [Etifenin],47.9
4,CN/C(=N\CCSCc1nc[nH]c1C)NC#N [Cimetidine],36.1
5,O=C(O)c1cc(/N=N/c2ccc(S(=O)(=O)Nc3ccccn3)cc2)ccc1O [Sulfasalazine],29.8
6,CNC[C@H](O)[C@@H](O)[C@H](O)[C@H](O)CO [Meglumine],75.9
7,Nc1ccc(S(=O)(=O)Nc2cnc3ccccc3n2)cc1 [Sulfaquinoxaline sodium salt],73
8,NCCCC(O)(P(=O)(O)O)P(=O)(O)O [Alendronate sodium],48.9
9,N=C(N)NCc1cccc(I)c1 [Iobenguane sulfate],34.5
10,NC(=O)OCC(COC(N)=O)c1ccccc1 [Felbamate],34.6
11,C[C@H]1NC(=O)NC1=O [Methylhydantoin-5-(D)],75.2
12,Cc1ccnc(NS(=O)(=O)c2ccc(N)cc2)n1 [Sulfamerazine],68.3
13,CC(C)n1c(/C=C/C(O)CC(O)CC(=O)O)c(-c2ccc(F)cc2)c2ccccc21 (stereo unspecified) [Fluvastatin sodium salt],35.9
14,CCCCNc1cc(C(=O)O)cc(S(N)(=O)=O)c1Oc1ccccc1 [Bumetanide],40.3
15,CNC(=O)c1c(I)c(C(=O)NCC(=O)Nc2c(I)c(C(=O)O)c(I)c(C(=O)NCCO)c2I)c(I)c(N(C)C(C)=O)c1I [Ioxaglic acid],41.8
16,CC(=O)Oc1ccccc1C(=O)Oc1ccccc1C(=O)O [Acetylsalicylsalicylic acid],52.3
17,CCN(CC)CCOC(=O)c1ccc(N)cc1 [Procaine hydrochloride],67.8
18,Cc1c(C)c2c(c(C)c1O)CCC(C)(C(=O)O)O2 (stereo unspecified) [Trolox],32
19,CC[C@H](C)C(=O)O[C@H]1C[C@@H](C)C=C2C=C[C@H](C)[C@H](CC[C@@H]3C[C@@H](O)CC(=O)O3)[C@H]21 [Lovastatin],54.4
20,CC(=O)N[C@@H](CS)C(=O)O [Acetylcysteine],50.8
21,CC(=O)O[C@H]1C[C@@]2(C)[C@@H](C[C@@H](O)[C@H]3[C@@]4(C)CC[C@@H](O)[C@@H](C)[C@@H]4CC[C@@]32C)/C1=C(\CCC=C(C)C)C(=O)O [Fusidic acid sodium salt],51.2
22,CN(C)CCn1nnnc1SCC1=C(C(=O)O)N2C(=O)[C@@H](NC(=O)Cc3csc(N)n3)[C@H]2SC1 [Cefotiam hydrochloride],35.4
23,C[C@@H]1C[C@H]2[C@@H]3C[C@H](F)C4=CC(=O)C=C[C@]4(C)[C@@]3(Cl)[C@@H](O)C[C@]2(C)[C@H]1C(=O)COC(=O)C(C)(C)C [Clocortolone pivalate],71.3

row,SMILES,HCT116-GFP viability [%]
1,OC(c1cc(C(F)(F)F)nc2c(C(F)(F)F)cccc12)C1CCCCN1 (stereo unspecified) [Mefloquine hydrochloride],3.49
2,CNCCCC12CCC(c3ccccc31)c1ccccc12 [Maprotiline hydrochloride],71.5
3,CC1(C)O[C@@H]2C[C@H]3[C@@H]4CCC5=CC(=O)CC[C@]5(C)[C@@]4(F)[C@@H](O)C[C@]3(C)[C@]2(C(=O)CCl)O1 [Halcinonide],85.6
4,C[C@]12C=CC(=O)C=C1CC[C@H]1[C@@H]3C[C@@H](O)[C@](O)(C(=O)CO)[C@@]3(C)C[C@H](O)[C@@]12F [Triamcinolone],76.1
5,CCN(CC)C(=O)/C(C#N)=C/c1cc(O)c(O)c([N+](=O)[O-])c1 [Entacapone],42.6
6,C[C@@H](O)[C@H]1C(=O)N2C(C(=O)O)=C(S[C@@H]3CN[C@H](C(=O)N(C)C)C3)[C@H](C)[C@H]12 [Meropenem],24.3
7,CC(=O)O[C@H]1C[C@@H]2CC[C@@H]3[C@H](CC[C@@]4(C)[C@H]3C[C@H]([N+]3(C)CCCCC3)[C@@H]4OC(C)=O)[C@@]2(C)C[C@@H]1N1CCCCC1 [Vecuronium bromide],38.8
8,CC(C)NC[C@H](O)COc1cccc2ccccc12 [(S)-propranolol hydrochloride],37.2
9,CN(C/C=C/c1ccccc1)Cc1cccc2ccccc12 [Naftifine hydrochloride],41
10,CC(=O)CCCCn1c(=O)c2c(ncn2C)n(C)c1=O [Pentoxifylline],36
11,CN1C(=O)OC(C)(C)C1=O [Trimethadione],51.9
12,OCCN1CCN(CCCN2c3ccccc3C=Cc3ccccc32)CC1 [Opipramol dihydrochloride],73.1
13,C[C@H](Cc1cc2c(c(C(N)=O)c1)N(CCCO)CC2)NCCOc1ccccc1OCC(F)(F)F [Silodosin],38.7
14,Cc1onc(-c2c(F)cccc2Cl)c1C(=O)N[C@@H]1C(=O)N2[C@@H]1SC(C)(C)[C@@H]2C(=O)O [Flucloxacillin sodium],27.5
15,CN(C)CCCSC(=N)N [Dimaprit dihydrochloride],32.3
16,O=C(NCCN1CCOCC1)c1ccc(Cl)cc1 [Moclobemide],47.1
17,NS(=O)(=O)c1cc(Cl)c(Cl)c(S(N)(=O)=O)c1 [Dichlorphenamide],73.5
18,CCCCCNC(=N)N/N=C/c1c[nH]c2ccc(OC)cc12 [Tegaserod maleate],1.26
19,CCN1CCCC(OC(=O)C(c2ccccc2)c2ccccc2)C1 (stereo unspecified) [Piperidolate hydrochloride],38.3
20,CCCC1O[C@@H]2C[C@H]3[C@@H]4CCC5=CC(=O)C=C[C@]5(C)[C@H]4[C@@H](O)C[C@]3(C)[C@]2(C(=O)CO)O1 (stereo partly specified) [Budesonide],60
21,CC(C(=O)O)c1cccc(C(=O)c2ccccc2)c1 (stereo unspecified) [Ketoprofen],48
22,C#C[C@]1(O)CC[C@H]2[C@@H]3CCc4cc(O)ccc4[C@H]3CC[C@@]21C [Ethinylestradiol],15.4
23,CCCCN(CCCC)CCC(O)c1cc2c(Cl)cc(Cl)cc2c2cc(C(F)(F)F)ccc12 (stereo unspecified) [Halofantrine hydrochloride],24.5

# Gathered by group: the entries above with fluorine
row,SMILES,HCT116-GFP viability [%]
13,CC(C)n1c(/C=C/C(O)CC(O)CC(=O)O)c(-c2ccc(F)cc2)c2ccccc21 (stereo unspecified) [Fluvastatin sodium salt],35.9
23,C[C@@H]1C[C@H]2[C@@H]3C[C@H](F)C4=CC(=O)C=C[C@]4(C)[C@@]3(Cl)[C@@H](O)C[C@]2(C)[C@H]1C(=O)COC(=O)C(C)(C)C [Clocortolone pivalate],71.3
1,OC(c1cc(C(F)(F)F)nc2c(C(F)(F)F)cccc12)C1CCCCN1 (stereo unspecified) [Mefloquine hydrochloride],3.49
3,CC1(C)O[C@@H]2C[C@H]3[C@@H]4CCC5=CC(=O)CC[C@]5(C)[C@@]4(F)[C@@H](O)C[C@]3(C)[C@]2(C(=O)CCl)O1 [Halcinonide],85.6
4,C[C@]12C=CC(=O)C=C1CC[C@H]1[C@@H]3C[C@@H](O)[C@](O)(C(=O)CO)[C@@]3(C)C[C@H](O)[C@@]12F [Triamcinolone],76.1
13,C[C@H](Cc1cc2c(c(C(N)=O)c1)N(CCCO)CC2)NCCOc1ccccc1OCC(F)(F)F [Silodosin],38.7
14,Cc1onc(-c2c(F)cccc2Cl)c1C(=O)N[C@@H]1C(=O)N2[C@@H]1SC(C)(C)[C@@H]2C(=O)O [Flucloxacillin sodium],27.5
23,CCCCN(CCCC)CCC(O)c1cc2c(Cl)cc(Cl)cc2c2cc(C(F)(F)F)ccc12 (stereo unspecified) [Halofantrine hydrochloride],24.5

# — the supplement of paper PMC9938546
